# This is one part of the list.
# By UniProt entry, the sequences of proteins in these tests, tags left out. Where a name states a change or a piece, a line headed by the entry shows the natural chain unless it says otherwise.
# UniProt Q9H8W4: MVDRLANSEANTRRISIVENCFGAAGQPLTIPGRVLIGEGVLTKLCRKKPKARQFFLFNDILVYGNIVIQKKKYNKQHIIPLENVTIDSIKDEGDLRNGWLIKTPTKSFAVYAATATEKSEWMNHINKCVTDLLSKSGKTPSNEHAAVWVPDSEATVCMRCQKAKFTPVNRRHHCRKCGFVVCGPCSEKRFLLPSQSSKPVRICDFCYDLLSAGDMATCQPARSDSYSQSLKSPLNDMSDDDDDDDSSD
# UniProt Q92521: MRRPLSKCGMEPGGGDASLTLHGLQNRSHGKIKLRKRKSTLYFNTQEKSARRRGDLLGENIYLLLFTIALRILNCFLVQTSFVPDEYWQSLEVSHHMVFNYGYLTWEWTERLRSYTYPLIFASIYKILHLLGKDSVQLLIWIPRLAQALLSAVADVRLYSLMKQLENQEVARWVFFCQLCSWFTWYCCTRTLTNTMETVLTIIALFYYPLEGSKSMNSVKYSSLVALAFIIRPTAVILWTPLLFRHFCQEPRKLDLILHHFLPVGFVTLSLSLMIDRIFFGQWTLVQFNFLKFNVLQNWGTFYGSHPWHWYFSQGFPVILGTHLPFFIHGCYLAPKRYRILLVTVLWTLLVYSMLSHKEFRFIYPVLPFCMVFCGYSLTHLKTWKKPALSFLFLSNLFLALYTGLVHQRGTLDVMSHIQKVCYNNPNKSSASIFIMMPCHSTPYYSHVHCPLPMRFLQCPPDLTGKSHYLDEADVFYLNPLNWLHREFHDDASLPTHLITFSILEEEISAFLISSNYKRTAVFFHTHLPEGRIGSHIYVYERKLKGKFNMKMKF
# UniProt P07205: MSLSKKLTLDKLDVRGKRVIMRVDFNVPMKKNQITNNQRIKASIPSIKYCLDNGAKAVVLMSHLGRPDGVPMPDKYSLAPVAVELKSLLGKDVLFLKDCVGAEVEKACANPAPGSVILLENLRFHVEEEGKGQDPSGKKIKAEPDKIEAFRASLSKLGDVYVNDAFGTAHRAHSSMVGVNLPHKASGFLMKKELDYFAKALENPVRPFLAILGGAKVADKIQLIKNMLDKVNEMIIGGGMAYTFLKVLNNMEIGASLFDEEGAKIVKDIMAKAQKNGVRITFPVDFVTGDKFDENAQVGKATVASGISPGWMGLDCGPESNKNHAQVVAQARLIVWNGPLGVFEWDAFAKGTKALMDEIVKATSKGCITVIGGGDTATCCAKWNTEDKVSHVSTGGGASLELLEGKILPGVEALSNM
# UniProt Q8N2W9: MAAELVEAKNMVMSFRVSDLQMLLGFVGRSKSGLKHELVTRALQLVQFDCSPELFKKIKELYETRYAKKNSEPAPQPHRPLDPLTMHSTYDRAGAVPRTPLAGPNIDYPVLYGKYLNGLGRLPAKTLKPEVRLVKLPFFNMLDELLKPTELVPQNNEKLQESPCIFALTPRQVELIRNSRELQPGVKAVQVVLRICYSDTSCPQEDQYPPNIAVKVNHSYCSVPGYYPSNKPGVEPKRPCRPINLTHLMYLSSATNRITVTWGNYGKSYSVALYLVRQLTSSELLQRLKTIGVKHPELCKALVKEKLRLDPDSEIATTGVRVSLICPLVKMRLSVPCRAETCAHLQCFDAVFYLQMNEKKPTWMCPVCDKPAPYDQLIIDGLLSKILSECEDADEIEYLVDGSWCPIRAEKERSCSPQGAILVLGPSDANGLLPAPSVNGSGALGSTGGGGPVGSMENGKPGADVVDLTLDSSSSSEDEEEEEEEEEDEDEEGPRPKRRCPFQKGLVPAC
# UniProt O75167: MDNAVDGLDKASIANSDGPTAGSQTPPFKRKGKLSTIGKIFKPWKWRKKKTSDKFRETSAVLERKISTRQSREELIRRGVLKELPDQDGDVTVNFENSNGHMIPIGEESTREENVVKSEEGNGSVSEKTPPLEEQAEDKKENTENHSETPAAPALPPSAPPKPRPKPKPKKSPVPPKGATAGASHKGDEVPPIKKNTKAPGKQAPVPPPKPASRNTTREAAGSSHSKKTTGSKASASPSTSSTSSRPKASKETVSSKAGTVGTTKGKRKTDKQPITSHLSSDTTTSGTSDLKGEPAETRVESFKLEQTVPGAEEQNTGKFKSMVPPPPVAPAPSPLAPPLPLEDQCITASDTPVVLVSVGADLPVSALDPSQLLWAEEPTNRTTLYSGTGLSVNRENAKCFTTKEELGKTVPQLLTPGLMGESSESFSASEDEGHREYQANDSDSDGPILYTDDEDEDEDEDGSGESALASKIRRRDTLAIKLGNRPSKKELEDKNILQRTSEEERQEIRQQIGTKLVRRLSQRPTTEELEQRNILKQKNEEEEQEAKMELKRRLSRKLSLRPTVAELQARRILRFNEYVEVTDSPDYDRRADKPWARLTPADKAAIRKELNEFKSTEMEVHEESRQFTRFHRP
# UniProt Q14442: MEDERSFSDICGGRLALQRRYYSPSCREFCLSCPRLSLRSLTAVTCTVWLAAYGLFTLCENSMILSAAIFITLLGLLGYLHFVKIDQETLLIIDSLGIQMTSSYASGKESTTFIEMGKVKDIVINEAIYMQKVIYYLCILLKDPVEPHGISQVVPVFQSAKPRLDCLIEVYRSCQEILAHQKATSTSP
# UniProt Q16513: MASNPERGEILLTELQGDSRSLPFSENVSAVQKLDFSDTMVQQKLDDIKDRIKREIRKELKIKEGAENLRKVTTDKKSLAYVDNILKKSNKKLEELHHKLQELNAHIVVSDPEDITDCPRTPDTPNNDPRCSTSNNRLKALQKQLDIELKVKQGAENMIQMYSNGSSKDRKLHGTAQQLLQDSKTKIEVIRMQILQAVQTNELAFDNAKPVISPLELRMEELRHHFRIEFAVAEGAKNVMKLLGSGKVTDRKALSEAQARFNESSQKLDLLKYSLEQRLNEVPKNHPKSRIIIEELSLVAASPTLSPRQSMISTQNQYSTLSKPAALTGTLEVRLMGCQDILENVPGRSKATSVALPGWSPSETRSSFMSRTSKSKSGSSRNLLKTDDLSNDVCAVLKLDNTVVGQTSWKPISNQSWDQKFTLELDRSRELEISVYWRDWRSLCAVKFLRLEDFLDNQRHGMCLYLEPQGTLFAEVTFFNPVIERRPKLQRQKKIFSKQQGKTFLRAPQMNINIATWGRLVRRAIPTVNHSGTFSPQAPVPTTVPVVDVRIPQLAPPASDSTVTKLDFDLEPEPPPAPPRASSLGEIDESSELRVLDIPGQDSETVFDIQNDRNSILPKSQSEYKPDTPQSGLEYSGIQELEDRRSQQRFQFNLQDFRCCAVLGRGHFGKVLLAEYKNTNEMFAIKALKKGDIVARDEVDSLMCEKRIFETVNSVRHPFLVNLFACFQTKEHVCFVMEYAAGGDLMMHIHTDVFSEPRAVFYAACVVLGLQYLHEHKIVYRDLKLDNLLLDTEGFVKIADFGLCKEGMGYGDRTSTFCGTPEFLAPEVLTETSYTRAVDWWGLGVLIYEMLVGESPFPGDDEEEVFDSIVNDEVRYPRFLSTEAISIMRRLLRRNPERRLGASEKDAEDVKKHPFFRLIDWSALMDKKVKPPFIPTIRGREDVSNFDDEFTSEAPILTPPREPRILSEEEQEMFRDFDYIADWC
# UniProt P78337, whole entry, looked up: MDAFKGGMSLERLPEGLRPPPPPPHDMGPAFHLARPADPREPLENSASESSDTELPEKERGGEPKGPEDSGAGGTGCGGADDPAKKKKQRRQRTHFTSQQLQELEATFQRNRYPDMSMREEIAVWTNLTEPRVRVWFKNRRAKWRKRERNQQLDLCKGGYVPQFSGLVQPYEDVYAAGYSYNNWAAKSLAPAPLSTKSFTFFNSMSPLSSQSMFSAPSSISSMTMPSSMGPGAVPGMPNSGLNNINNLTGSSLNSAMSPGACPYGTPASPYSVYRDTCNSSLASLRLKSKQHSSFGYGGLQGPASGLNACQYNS
# UniProt Q16816: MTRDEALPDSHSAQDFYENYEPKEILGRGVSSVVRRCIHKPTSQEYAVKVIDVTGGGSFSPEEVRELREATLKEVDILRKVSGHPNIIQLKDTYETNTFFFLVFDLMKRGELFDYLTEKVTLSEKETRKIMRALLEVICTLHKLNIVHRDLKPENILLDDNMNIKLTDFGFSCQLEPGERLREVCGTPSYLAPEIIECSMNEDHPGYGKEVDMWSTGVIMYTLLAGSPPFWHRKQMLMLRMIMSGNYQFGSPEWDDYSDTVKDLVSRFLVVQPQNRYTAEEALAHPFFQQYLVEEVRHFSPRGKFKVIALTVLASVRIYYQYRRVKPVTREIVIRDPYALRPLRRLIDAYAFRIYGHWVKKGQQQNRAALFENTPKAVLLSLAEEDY
# UniProt O60346: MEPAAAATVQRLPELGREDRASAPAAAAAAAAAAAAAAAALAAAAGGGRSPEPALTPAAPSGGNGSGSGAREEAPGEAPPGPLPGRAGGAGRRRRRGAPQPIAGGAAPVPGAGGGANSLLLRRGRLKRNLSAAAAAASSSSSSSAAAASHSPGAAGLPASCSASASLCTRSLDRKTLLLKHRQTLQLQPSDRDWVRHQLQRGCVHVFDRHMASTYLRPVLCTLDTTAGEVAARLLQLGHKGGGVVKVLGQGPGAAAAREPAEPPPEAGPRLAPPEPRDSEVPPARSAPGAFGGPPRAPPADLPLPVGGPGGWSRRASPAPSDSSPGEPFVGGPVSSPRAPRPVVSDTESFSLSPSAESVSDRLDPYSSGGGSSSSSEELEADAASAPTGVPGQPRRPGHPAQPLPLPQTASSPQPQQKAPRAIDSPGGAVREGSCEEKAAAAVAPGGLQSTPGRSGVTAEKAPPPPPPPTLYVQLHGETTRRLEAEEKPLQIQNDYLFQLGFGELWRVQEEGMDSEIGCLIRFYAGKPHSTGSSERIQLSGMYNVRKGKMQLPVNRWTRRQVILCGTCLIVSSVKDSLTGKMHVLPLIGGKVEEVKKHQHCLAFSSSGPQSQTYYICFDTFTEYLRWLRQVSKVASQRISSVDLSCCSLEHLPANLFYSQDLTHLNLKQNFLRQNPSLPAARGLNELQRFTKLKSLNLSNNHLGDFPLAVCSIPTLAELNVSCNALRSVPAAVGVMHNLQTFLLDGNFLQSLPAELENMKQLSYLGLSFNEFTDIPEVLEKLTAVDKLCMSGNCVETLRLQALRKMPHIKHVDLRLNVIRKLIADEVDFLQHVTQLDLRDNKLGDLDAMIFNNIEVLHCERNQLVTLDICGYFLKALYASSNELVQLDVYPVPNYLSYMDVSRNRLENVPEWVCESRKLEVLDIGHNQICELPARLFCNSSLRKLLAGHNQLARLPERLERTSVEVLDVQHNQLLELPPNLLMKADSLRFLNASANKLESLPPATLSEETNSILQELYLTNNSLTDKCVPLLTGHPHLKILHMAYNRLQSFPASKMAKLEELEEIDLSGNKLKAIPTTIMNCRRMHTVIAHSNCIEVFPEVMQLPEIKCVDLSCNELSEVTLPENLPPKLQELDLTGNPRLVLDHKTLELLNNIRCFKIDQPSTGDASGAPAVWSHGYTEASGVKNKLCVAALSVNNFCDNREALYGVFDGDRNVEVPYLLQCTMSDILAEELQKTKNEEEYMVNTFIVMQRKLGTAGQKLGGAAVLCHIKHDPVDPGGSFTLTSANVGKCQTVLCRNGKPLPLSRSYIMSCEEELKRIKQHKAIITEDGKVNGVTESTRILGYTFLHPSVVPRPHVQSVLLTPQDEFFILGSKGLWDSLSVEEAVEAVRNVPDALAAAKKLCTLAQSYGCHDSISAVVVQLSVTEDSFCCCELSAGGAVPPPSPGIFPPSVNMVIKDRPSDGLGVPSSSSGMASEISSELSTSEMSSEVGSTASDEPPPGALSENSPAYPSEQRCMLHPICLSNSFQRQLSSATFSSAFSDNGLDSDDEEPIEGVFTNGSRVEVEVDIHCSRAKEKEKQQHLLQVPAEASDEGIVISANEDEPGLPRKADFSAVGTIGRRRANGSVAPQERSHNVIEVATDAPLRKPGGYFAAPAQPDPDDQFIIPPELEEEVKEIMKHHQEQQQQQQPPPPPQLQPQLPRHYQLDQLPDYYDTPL
# UniProt Q86YI8: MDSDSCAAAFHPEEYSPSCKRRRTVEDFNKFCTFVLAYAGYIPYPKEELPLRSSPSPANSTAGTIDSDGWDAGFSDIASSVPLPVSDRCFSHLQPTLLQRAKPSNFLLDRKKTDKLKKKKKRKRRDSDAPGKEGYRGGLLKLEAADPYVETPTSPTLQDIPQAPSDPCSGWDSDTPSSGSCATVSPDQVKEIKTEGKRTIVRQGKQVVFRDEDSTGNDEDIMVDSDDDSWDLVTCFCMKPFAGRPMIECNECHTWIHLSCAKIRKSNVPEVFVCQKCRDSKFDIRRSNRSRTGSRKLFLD
# UniProt P11309, whole entry, looked up: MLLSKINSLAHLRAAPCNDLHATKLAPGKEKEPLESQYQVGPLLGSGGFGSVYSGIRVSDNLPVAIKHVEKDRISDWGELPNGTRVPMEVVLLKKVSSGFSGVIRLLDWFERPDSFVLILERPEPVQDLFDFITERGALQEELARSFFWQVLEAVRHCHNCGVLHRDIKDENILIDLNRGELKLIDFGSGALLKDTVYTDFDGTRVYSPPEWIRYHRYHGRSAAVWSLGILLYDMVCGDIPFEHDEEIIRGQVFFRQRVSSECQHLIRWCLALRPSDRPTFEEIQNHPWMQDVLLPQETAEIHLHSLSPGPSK
# Columns and labels:
# Test in all cases: log2 fold change, soluble protein after heating vs DMSO (PISA); higher = thermal stabilisation; K562 lysate, 10 uM; active = over 0.2 and 3.5 SD of the protein, either way, in both replicates (recomputed)
# vemurafenib = compound: CCCS(=O)(=O)Nc1ccc(F)c(C(=O)c2c[nH]c3ncc(-c4ccc(Cl)cc4)cc23)c1F [vemurafenib]
# Method in brief: (§1)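 Quantification was by TMTpro 16plex LC-MS/MS with equalised channel sums, applied to the supernatant after 21,000xg for 90 min. Samples were crude K562 extract at 1 mg/mL protein in PBS pH 7.4 with 1 mM MgCl2, treated with 10 μM compound for 30 min, heated for 3 min across 48°C-58°C, pooled and brought to 0.5% NP-40 at 4°C. Values are log-two fold changes in thermal stability relative to solvent controls, from duplicates.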
# [1] = compound: CCCS(=O)(=O)Nc1ccc(F)c(C(=O)c2c[nH]c3ncc(Cl)cc23)c1F
# Method in brief: as §1
# barasertib = compound: CCN(CCCOc1ccc2c(Nc3cc(CC(=O)Nc4cccc(F)c4)[nH]n3)ncnc2c1)CCOP(=O)(O)O [barasertib]
# Method in brief: as §1
# [2] = compound: CC[C@@H]1C(=O)N(C)c2cnc(Nc3ccc(C(=O)NC4CCN(C)CC4)cc3OC)nc2N1C1CCCC1
# Method in brief: as §1
# volasertib = compound: CC[C@@H]1C(=O)N(C)c2cnc(Nc3ccc(C(=O)N[C@H]4CC[C@H](N5CCN(CC6CC6)CC5)CC4)cc3OC)nc2N1C(C)C [volasertib]
# Method in brief: as §1
# [3] = compound: CCn1c(C(=O)N(C2CC2)C2CC2)cc2c3c(ncn3C)c(Nc3cc(C)n(C)n3)nc21
# Method in brief: as §1
# [4] = compound: CCn1cc(-c2ccnc3[nH]c(-c4cccc(CN(C)C)c4)cc23)c(-c2ccc(NC(=O)N(C)C)cc2)n1
# Method in brief: as §1
# [5] = compound: CN1CCC(CNc2ccc3ncc(-c4cccc(OC(F)(F)F)c4)n3n2)CC1
# Method in brief: as §1
# saracatinib = compound: CN1CCN(CCOc2cc(OC3CCOCC3)c3c(Nc4c(Cl)ccc5c4OCO5)ncnc3c2)CC1 [saracatinib]
# Method in brief: as §1
# sotrastaurin = compound: CN1CCN(c2nc(C3=C(c4c[nH]c5ccccc45)C(=O)NC3=O)c3ccccc3n2)CC1 [sotrastaurin]
# Method in brief: as §1
# alvocidib = compound: CN1CC[C@H](c2c(O)cc(O)c3c(=O)cc(-c4ccccc4Cl)oc23)[C@H](O)C1 [alvocidib]
# Method in brief: as §1
# Tubastatin A = compound: CN1CCc2c(c3ccccc3n2Cc2ccc(C(=O)NO)cc2)C1 [Tubastatin A]
# Method in brief: as §1
# [6] = compound: CNC(=O)C1=CC=CC=C1NC2=NC(=NC=C2Cl)NC3=C(C=C(C=C3)N4CCOCC4)OC
# Method in brief: as §1
# defactinib = compound: CNC(=O)c1ccc(Nc2ncc(C(F)(F)F)c(NCc3nccnc3N(C)S(C)(=O)=O)n2)cc1 [defactinib]
# Method in brief: as §1
# [7] = compound: CNc1nc(-c2ccc3c(N)n[nH]c3c2)cc(N2C[C@@H](C(=O)NC3CCCCC3)CC[C@H]2C)n1
# Method in brief: as §1
# encorafenib = compound: COC(=O)N[C@@H](C)CNc1nccc(-c2cn(C(C)C)nc2-c2cc(Cl)cc(NS(C)(=O)=O)c2F)n1 [encorafenib]
# Method in brief: as §1
# [8] = compound: COC(=O)[C@H](CCSC)NC(=O)C1=C(C=C(C=C1)NC[C@H](CS)N)C2=CC=CC=C2
# Method in brief: as §1
# alisertib = compound: COc1cc(Nc2ncc3c(n2)-c2ccc(Cl)cc2C(c2c(F)cccc2OC)=NC3)ccc1C(=O)O [alisertib]
# Method in brief: as §1
# [9] = compound: COc1cc2nc(-c3cc(F)ccc3O)nc(N[C@@H]3CNC[C@H]3C(C)(C)O)c2cc1OC
# Method in brief: as §1
# gefitinib = compound: COc1cc2ncnc(Nc3ccc(F)c(Cl)c3)c2cc1OCCCN1CCOCC1 [gefitinib]
# Method in brief: as §1
Target,log2 fold change (vemurafenib),log2 fold change [1],log2 fold change (barasertib),log2 fold change [2],log2 fold change (volasertib),log2 fold change [3],log2 fold change [4],log2 fold change [5],log2 fold change (saracatinib),log2 fold change (sotrastaurin),log2 fold change (alvocidib),log2 fold change (Tubastatin A),log2 fold change [6],log2 fold change (defactinib),log2 fold change [7],log2 fold change (encorafenib),log2 fold change [8],log2 fold change (alisertib),log2 fold change [9],log2 fold change (gefitinib)
PLEKHF2 (UniProt Q9H8W4),inactive: -0.019,inactive: 0.04,inactive: -0.019,inactive: 0.026,inactive: -0.007,inactive: -0.006,inactive: 0.149,inactive: -0.034,inactive: -0.126,inactive: -0.012,inactive: 0.011,inactive: -0.065,inactive: -0.009,inactive: 0.002,inactive: -0.095,inactive: 0.074,inactive: -0.047,inactive: -0.043,inactive: -0.002,inactive: -0.085
PKLR (UniProt F8W6W2),inactive: 0.035,–,–,–,–,–,–,–,–,–,–,–,–,inactive: -0.128,–,–,–,–,–,–
PIGB (UniProt Q92521),inactive: -0.17,–,inactive: 0.049,inactive: 0.17,–,inactive: -0.009,inactive: -0.117,inactive: 0.161,–,inactive: 0.069,inactive: 0.015,inactive: -0.029,–,inactive: -0.471,–,inactive: 0.11,inactive: 0.089,–,–,–
PGK2 (UniProt P07205),inactive: -0.057,inactive: 0.061,–,inactive: -0.183,inactive: -0.094,inactive: -0.029,inactive: 0.038,inactive: -0.153,–,–,inactive: 0.135,inactive: 0.078,–,inactive: 0.074,–,inactive: 0.002,inactive: 0.303,–,inactive: -0.312,–
PIAS4 (UniProt Q8N2W9),inactive: 0.077,–,–,inactive: -0.017,–,inactive: 0.051,inactive: -0.241,inactive: 0.029,inactive: 0.048,inactive: 0.007,inactive: -0.12,inactive: -0.153,inactive: 0.052,inactive: -0.158,inactive: 0.063,inactive: 0.013,inactive: -0.036,inactive: -0.052,–,inactive: -0.015
PHACTR2 isoform 4 (UniProt O75167),–,inactive: -0.175,inactive: -0.038,inactive: 0.182,inactive: -0.046,inactive: -0.001,inactive: 0.06,inactive: -0.042,inactive: 0.107,inactive: 0.059,inactive: -0.115,inactive: 0.106,inactive: 0.014,–,inactive: 0.199,inactive: -0.087,inactive: -0.085,inactive: 0.031,inactive: 0.094,inactive: 0.031
PIGH (UniProt Q14442),inactive: -0.02,inactive: 0.052,inactive: -0.038,–,inactive: -0.021,–,inactive: -0.015,inactive: 0.036,–,inactive: 0.054,inactive: -0.026,–,inactive: -0.111,inactive: 0.013,–,–,–,–,inactive: 0.03,–
PLEC isoform 3 (UniProt Q15149),inactive: 0.057,–,inactive: 0.116,inactive: -0.268,–,–,inactive: 0.064,inactive: -0.228,–,inactive: 0.08,inactive: 0.135,–,–,inactive: 0.042,–,inactive: -0.216,inactive: -0.047,–,–,–
PIGW (UniProt Q7Z7B1),inactive: 0.139,–,–,–,–,inactive: 0.06,–,–,inactive: 0.019,inactive: 0.007,–,inactive: -0.018,–,inactive: 0.008,inactive: -0.028,–,–,inactive: -0.09,–,inactive: 0.061
PKN2 (UniProt Q16513),inactive: 0.05,inactive: 0.04,inactive: 0.081,–,inactive: -0.004,inactive: -0.002,inactive: -0.012,inactive: -0.086,inactive: 0.027,–,inactive: -0.052,inactive: -0.043,inactive: 0.047,inactive: -0.015,inactive: 0.045,inactive: 0.037,inactive: 0.049,–,inactive: -0.037,inactive: 0
PITX1 (UniProt P78337),inactive: -0.064,–,inactive: -0.088,inactive: -0.061,–,–,–,–,inactive: -0.016,inactive: -0.015,–,–,–,inactive: 0.006,inactive: 0.215,inactive: 0.117,inactive: 0.031,–,–,–
PHKG1 isoform 2 (UniProt Q16816),inactive: -0.197,inactive: -0.037,–,inactive: -0.062,inactive: 0.033,inactive: 0.054,active: -0.867,inactive: 0.64,inactive: 0.177,inactive: -0.269,inactive: -0.057,inactive: 0.053,active: 0.929,inactive: 0.196,inactive: -0.118,inactive: 0.123,inactive: -0.078,inactive: -0.185,inactive: 0.763,inactive: 0.202
PIGL (UniProt Q9Y2B2),–,inactive: -0.096,inactive: -0.083,inactive: -0.092,inactive: -0.452,inactive: -0.035,–,–,inactive: 0.003,inactive: 0.076,–,inactive: -0.027,inactive: 0.095,–,inactive: 0.072,inactive: 0.011,inactive: 0.394,–,inactive: -0.087,–
PHF19 isoform 2 (UniProt Q5T6S3),inactive: -0.06,–,inactive: 0.055,inactive: 0.134,–,–,inactive: 0.087,inactive: 0.08,–,–,inactive: -0.025,–,–,inactive: 0.092,–,inactive: -0.081,inactive: -0.117,–,–,–
PHLPP1 (UniProt O60346),inactive: -0.001,–,inactive: 0.008,–,–,inactive: -0.171,inactive: -0.076,inactive: -0.032,inactive: 0.157,inactive: -0.049,inactive: 0.028,inactive: -0.053,inactive: -0.164,inactive: -0.065,inactive: -0.088,–,–,inactive: 0.026,–,inactive: -0.022
"PHGDH, A0A286YFE1",–,inactive: 0.158,inactive: 0.364,–,inactive: 0.083,–,–,–,inactive: -0.318,–,–,–,–,–,inactive: -0.19,–,–,–,inactive: -0.114,–
PHF13 (UniProt Q86YI8),–,inactive: 0.012,inactive: 0.019,–,inactive: 0.019,inactive: -0.163,inactive: -0.611,inactive: 0.411,–,inactive: 0.048,inactive: -0.278,inactive: 0.01,–,–,–,–,–,–,inactive: 0.128,–
PIP5K1A (UniProt Q99755),–,inactive: 0.029,inactive: 0.108,–,inactive: 0.07,inactive: -0.041,inactive: 0.027,active: -0.514,inactive: 0.107,inactive: -0.018,inactive: 0.077,inactive: -0.043,inactive: 0.027,–,inactive: -0.074,–,–,inactive: -0.121,inactive: -0.023,inactive: -0.024
PIM1 isoform 2 (UniProt P11309),inactive: -0.061,–,inactive: 0.139,inactive: 0.002,–,inactive: 0.073,inactive: -0.068,active: 1.46,inactive: 0,active: 0.593,inactive: 0.217,inactive: -0.204,inactive: 0.052,inactive: 0.035,inactive: -0.152,inactive: -0.007,inactive: 0.038,inactive: -0.017,–,inactive: 0.003
PIK3C2A (UniProt O00443),–,inactive: -0.056,inactive: 0.056,inactive: 0.007,inactive: 0.047,inactive: 0,–,–,inactive: -0.003,inactive: -0.065,–,inactive: -0.139,inactive: -0.019,–,inactive: 0.062,inactive: -0.13,inactive: 0,inactive: 0.027,inactive: -0.035,inactive: -0.007
PKN3 (UniProt Q6P5Z2),inactive: -0.072,–,inactive: -0.031,inactive: -0.065,–,inactive: -0.056,inactive: 0.003,inactive: -0.065,inactive: 0.037,inactive: 0.136,inactive: 0.034,inactive: 0.157,inactive: 0.032,inactive: -0.007,inactive: 0.008,inactive: 0.088,inactive: -0.064,inactive: -0.001,–,inactive: 0.008
PHC2 isoform 5 (UniProt Q8IXK0),inactive: -0.239,–,–,inactive: -0.07,–,–,inactive: -0.1,inactive: 0.012,–,inactive: -0.019,inactive: -0.067,–,–,inactive: 0.125,–,inactive: 0.023,inactive: -0.022,inactive: 0.102,–,inactive: 0.052

# Look-ups from the list:
# PHF19 isoform 2 (UniProt Q5T6S3) – log2 fold change (barasertib): inactive: 0.055
# PIM1 isoform 2 (UniProt P11309) – log2 fold change [8]: inactive: 0.038
